These results are taken from paper PMC9701223.

Amino acid sequences for entries named in this document (tags omitted). A change or cut given only in a name is not applied to a line headed by its entry.
UniProt Q9VQ93: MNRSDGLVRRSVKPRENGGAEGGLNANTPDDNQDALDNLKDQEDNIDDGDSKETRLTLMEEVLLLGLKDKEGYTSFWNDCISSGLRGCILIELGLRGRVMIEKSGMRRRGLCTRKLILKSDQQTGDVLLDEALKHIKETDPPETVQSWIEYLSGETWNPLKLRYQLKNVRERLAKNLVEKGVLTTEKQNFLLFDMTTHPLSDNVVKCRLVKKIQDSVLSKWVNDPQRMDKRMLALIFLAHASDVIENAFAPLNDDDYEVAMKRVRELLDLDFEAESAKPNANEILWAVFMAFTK

Results are given in words; binding and its absence hold for the method and conditions named. For some assays here: Binding seen in cells or lysates may run through a third protein. Some binding calls cover weakened binding; strength is not graded here. For some assays here: Sequences can lack the tags named with a protein.

Test [1] addresses dGOLPH3 bait (pEG202) for yeast two-hybrid (Drosophila melanogaster) (UniProt Q9VQ93). Kind of test: two-hybrid; B42/lexA system in yeast strain EGY48; dGOLPH3 bait in pEG202, preys in pJG4-5; lacZ reporter on X-GAL plates with galactose, quantified by β-galactosidase assay.
Test [2] has as its target T1, GST-Tctp (Drosophila Translationally controlled tumor protein) (Drosophila melanogaster) (UniProt Q9VGS2).
T1 sequence: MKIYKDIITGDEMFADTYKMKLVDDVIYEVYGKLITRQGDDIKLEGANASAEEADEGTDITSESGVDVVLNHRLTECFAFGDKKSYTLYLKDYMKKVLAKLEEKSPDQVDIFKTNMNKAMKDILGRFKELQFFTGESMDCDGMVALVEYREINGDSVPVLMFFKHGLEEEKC
The test is described as follows: pull-down; GST or GST-tagged protein (4 µg) on glutathione-Sepharose 4B beads, incubated with Drosophila S2 cell lysate, 4 °C, 2 h; wash 25 mM Tris-HCl pH 7.4, 150 mM NaCl, 1% NP-40, 1 mM EDTA; western blot; only the target purified.

Test [3] addresses GFP-dGOLPH3 (GFP-tagged dGOLPH3) (Drosophila melanogaster) (UniProt Q9VQ93). Kind of test: co-IP; GFP trap-A (ChromoTek) on lysates of pupae expressing GFP, GFP-dGOLPH3 or GFP-dGOLPH3 K167A-R170L; Buffer A (20 mM Tris-HCl pH 7.5, 100 mM NaCl, 5 mM MgCl2, 10% sucrose, 1 mM EDTA, 0.2% NP-40), 4 °C; blot with anti-Rheb and anti-GFP.
For test [4], the target named is GFP-dGOLPH3^K167A-R170L (Drosophila melanogaster) (UniProt Q9VQ93). The description is as above.
Test [5] has as its target dGOLPH3-RFP (RFP-tagged dGOLPH3) (Drosophila melanogaster) (UniProt Q9VQ93). The test is described as follows: co-IP; RFP trap-A (ChromoTek) on lysates of pupae expressing dGOLPH3-RFP; Buffer A, 4 °C.
The target of test [6] is T2, Tctp-HA (HA-tagged Tctp) (Drosophila melanogaster) (UniProt Q9VGS2).
T2 sequence: T1 sequence
The test is described as follows: co-IP; anti-HA agarose beads on lysates of pupae overexpressing Tctp-HA, with or without knockdown of dGOLPH3 (RNAi); Buffer A, 4 °C; eluted with 200 mM glycine pH 2.0.

B1: Tctp prey (pJG4-5) for yeast two-hybrid (protein, UniProt Q9VGS2 1-172)
chain: T1 sequence
With B1, the binding result in test [1] is on record as “binds”.

B2: 14-3-3ζ prey (pJG4-5) for yeast two-hybrid (protein, UniProt P29310 1-248)
chain: MSTVDKEELVQKAKLAEQSERYDDMAQAMKSVTETGVELSNEERNLLSVAYKNVVGARRSSWRVISSIEQKTEASARKQQLAREYRERVEKELREICYEVLGLLDKYLIPKASNPESKVFYLKMKGDYYRYLAEVATGDARNTVVDDSQTAYQDAFDISKGKMQPTHPIRLGLALNFSVFYYEILNSPDKACQLAKQAFDDAIAELDTLNEDSYKDSTLIMQLLRDNLTLWTSDTQGDEAEPQEGGDN
Regarding B2, the binding result in test [1] is given as “binds”.

B3: Lst8 prey (pJG4-5) for yeast two-hybrid (protein, UniProt Q9W328 1-313)
chain: MGDQQQLILATGGYDHTIKVWQAHTGNCIKTMRFVETSQVNALDRTPDKTRLAACGYQCIRLYDLESNCTAPVINFDGVQKNVTRLGFQEDGNWMFTAGEDHHVRIWDMIAAPPHCSRIFDCEAPVNAACLHPNQVEIAMGSQNGSVFLWDVKSERHERIVPEVDASIQDVAISPDGRYLAAANNKGNCYIWSLTSQDQKMSTLRPNRKIPAHSRYILRCKFSPDSRLLLTTSGDGTVCIWKTDDFSKWRELCIENYWVWDAAFSADSKWLFTASSDGIARLWKLQTKSSIRDYTGHTKAITALSFKDEIVGK
Regarding B3, the binding result in test [1] is reported as “binds”.

B4: Rheb (Ras homolog enriched in brain), endogenous in S2 cells (protein, UniProt Q9VND8 1-182)
chain: MPTKERHIAMMGYRSVGKSSLCIQFVEGQFVDSYDPTIENTFTKIERVKSQDYIVKLIDTAGQDEYSIFPVQYSMDYHGYVLVYSITSQKSFEVVKIIYEKLLDVMGKKYVPVVLVGNKIDLHQERTVSTEEGKKLAESWRAAFLETSAKQNESVGDIFHQLLILIENENGNPQEKSGCLVS
In the case of B4, in test [2], the binding entry is recorded as “binds”.

B5: Rheb (Ras homolog enriched in brain), endogenous in pupae (protein, UniProt Q9VND8 1-182)
chain: B4 chain
Regarding B5, the binding entry was “binds” in test [3], “no binding” in test [4], “binds” in test [5] and “binds” in test [6].
